Measured values: US4018754A (Shionogi & Co., Ltd., priority 1974, dated 1977)
“And” between values parts separate entries of the source, which are not always exact repeats. Identical values can stand only once. The star is where a group is joined. Cbz = O=C(OCc1ccccc1)*; Boc = CC(C)(C)OC(=O)*

Test: general procedure: solution-phase peptide synthesis; N,N'-dicyclohexylcarbodiimide with N-hydroxysuccinimide; N-hydroxysuccinimide ac

Substance: Z-Lys(Boc)--Lys(Boc)--Lys(Boc)--Lys(Boc)--Lys(Boc)--Lys(Boc)--NH2
- step yield (coupling step, run 1): 99.6% and 96.6%

Substance: Z--Lys(Boc)--Lys(Boc--Lys(Boc--Lys(Boc)--NH2
- step yield (coupling step): 95.3%

Substance: Z--Lys(Boc)--pro--Val--Gly--Lys(Boc)--Lys(Boc)--Lys(Boc)--Lys(Boc)--Lys(Boc)--NH2
- step yield (coupling step): 88.2%

Substance: Cbz-K(Boc)K(Boc)K(Boc)K(Boc)K(Boc)-NH2
- step yield (coupling step): 92.8%

Substance: H-K(Boc)K(Boc)K(Boc)K(Boc)-NH2
- step yield (late stage modification step): 88.1%
